Measurements: patent US10525030B2 (priority 2013, dated 2020)

Tested on: MES test (electrical stimulus through corneal electrodes)
Set-up: species or system male ICR mice
Details: mouse, in vivo

Structure (SMILES)	PI(TD50/ED50 in MES)
CC(OC(N)=O)C(O)c1ccccc1Cl (racemic) [Compound 3, 1-(2-chlorophenyl)-1-hydroxypropyl-2-carbamate]	12.0
C[C@@H](OC(N)=O)[C@H](O)c1ccccc1Cl [Compound 2, 1-(2-chlorophenyl)-(R)-1-hydroxypropyl-(R)-2-carbamate]	7.3
C[C@H](OC(N)=O)[C@H](O)c1ccccc1Cl [Compound 5, 1-(2-chlorophenyl)-(R)-1-hydroxypropyl-(S)-2-carbamate]	3.3
C[C@H](OC(N)=O)[C@@H](O)c1c(Cl)cccc1Cl [Compound 37, 1-(2,6-dichlorophenyl)-(S)-1-hydroxypropyl-(S)-2-carbamate]	5.1
